Percent effect of library compounds

Sequences of proteins named here, by UniProt entry; tags and fusion partners are left off.
UniProt P9WPC5, whole entry: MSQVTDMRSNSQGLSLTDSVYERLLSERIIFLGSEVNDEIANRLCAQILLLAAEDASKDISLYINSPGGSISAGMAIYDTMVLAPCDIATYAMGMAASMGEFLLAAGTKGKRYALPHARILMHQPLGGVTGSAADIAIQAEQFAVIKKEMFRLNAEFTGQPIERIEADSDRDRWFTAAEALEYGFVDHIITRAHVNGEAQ
UniProt P9WPC3, whole entry partner: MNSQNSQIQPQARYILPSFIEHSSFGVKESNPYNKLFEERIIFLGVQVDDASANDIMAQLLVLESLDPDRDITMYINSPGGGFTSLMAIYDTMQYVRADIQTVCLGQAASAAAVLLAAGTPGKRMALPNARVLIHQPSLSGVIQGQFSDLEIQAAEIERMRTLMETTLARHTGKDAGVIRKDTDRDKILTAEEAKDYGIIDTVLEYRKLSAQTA
UniProt P9WNZ1, whole entry: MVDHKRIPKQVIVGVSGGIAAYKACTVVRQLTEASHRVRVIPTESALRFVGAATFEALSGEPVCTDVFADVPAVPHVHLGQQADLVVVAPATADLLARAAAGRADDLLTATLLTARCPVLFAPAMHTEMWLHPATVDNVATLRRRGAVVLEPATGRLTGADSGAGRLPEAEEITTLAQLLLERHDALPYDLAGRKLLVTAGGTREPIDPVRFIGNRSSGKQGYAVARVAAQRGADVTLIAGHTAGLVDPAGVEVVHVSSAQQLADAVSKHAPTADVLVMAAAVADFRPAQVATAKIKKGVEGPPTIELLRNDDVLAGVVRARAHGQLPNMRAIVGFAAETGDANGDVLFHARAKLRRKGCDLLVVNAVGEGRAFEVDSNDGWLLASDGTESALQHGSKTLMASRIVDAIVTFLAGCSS

Source: ChEMBL document CHEMBL3988442, “University of Dundee, Small-Polar-MMV Screening Library” (2021).

Each number is a percent effect as filed. How 0% and 100% were set is not recorded. Most values in the screen are low, and negative values occur. This is an unselected part of the compounds tested.

ClpP1P2: 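ClpP1P2, Mycobacterium tuberculosis (UniProt P9WPC5 and UniProt P9WPC3). Protease assay of ClpP1P2, read by the AMC dye that it sets free. Compounds at 50 µM. Direction is inferred from only a few compounds that gave an IC50; most scored high, so higher reads as stronger inhibition. Most other retested compounds had strongly negative values. Size under these conditions: about 69,000 compounds, about 10 of them at 50% or above in at least one test.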
CoaBC: 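Enzyme assay of CoaBC with a phosphate dye (Biomol Green) read at 650 nm. Target: Coenzyme A biosynthesis protein CoaBC, Mycobacterium tuberculosis (UniProt P9WNZ1). Tested at 30 µM. Higher reads as stronger inhibition, judged from the few compounds that gave an IC50. Most strong results did not repeat in a second test. About 67,000 compounds were tested under these conditions; 0.06% (about 40) showed 50% or more at least once.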
Toxoplasma: 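Assay of Toxoplasma gondii numbers, read through their beta-galactosidase reporter with a colour substrate. Tested at 10 µM. The record gives no direction; the compounds picked for IC50 retests had high values, so higher reads as fewer parasites. Size under these conditions: about 67,000 compounds, about 260 of them at 50% or above in at least one test.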

* Cc1cccc(S(=O)(=O)N2C[C@@H]3C[C@@H](c4nnc(C)[nH]4)O[C@@H]3C2)c1 | ClpP1P2: -0.4086%; CoaBC: 3.273%
* CCOc1ccccc1C(CC(=O)Nc1ccncc1)NC(C)=O (configuration not stated) | ClpP1P2: -15.58%; CoaBC: 7.478%; Toxoplasma: -8.694%
* CCOCC(=O)N1CSCC1C(=O)N(C)Cc1ccco1 (configuration not stated) | ClpP1P2: 3.386%; CoaBC: 0.2389%; Toxoplasma: -30.89%
* O=C(NC1CC1)C1CN(Cc2ccc3c(c2)OCCO3)CCN1 (configuration not stated) | ClpP1P2: -20.32%; CoaBC: 1.615%; Toxoplasma: -10.07%
* CC(C)C[C@H](NC(=O)N1CCC(Cc2ccccc2)CC1)C(=O)O | ClpP1P2: -34.81%; CoaBC: 1.899%; Toxoplasma: 26.22%
* Cc1cnc(C(=O)N2CCN(Cc3csc(C)n3)CC2)cn1 | ClpP1P2: 13.48%; CoaBC: 7.593%; Toxoplasma: -22.64%
* O=C(O)C(F)(F)F.[H][C@@]12C[C@H](C(=O)NCc3ccco3)CN(C(=O)c3ccncc3)[C@]1([H])CCO2 | Toxoplasma: -1.175%
* Fc1cnc(NCC2Cn3nnc(-c4ccccc4)c3CO2)nc1 (configuration not stated) | ClpP1P2: 0.5564%; CoaBC: -2.843%; Toxoplasma: -0.7589%
* [H][C@]12C[C@H](CNC(=O)c3cccn3C)O[C@]1([H])CN(C(=O)c1ccno1)C2 | Toxoplasma: -3.138%
* O=C(O)C(F)(F)F.c1cncc(-c2ccc3c(c2)C2(CC3)CCN(c3nncs3)CC2)c1 | Toxoplasma: 10.67%
* CN(C)CCN1C[C@@H]2CN(c3ccccc3)C[C@@H]2C1=O | ClpP1P2: 12.28%; CoaBC: 0.9877%
* O=C(CCn1ccccc1=O)N1CCCC(COc2ccc(F)cc2)C1 (configuration not stated) | ClpP1P2: -2.097%; CoaBC: -3.947%; Toxoplasma: 6.08%
* Cc1nc(-c2cc(Cl)c3c(c2)CC(CN)O3)c[nH]1 (configuration not stated) | ClpP1P2: 4.195%; CoaBC: 1.229%; Toxoplasma: 8.308%
* Cc1nn(C)c(C)c1C1CCCN1CC(=O)NC(C1CC1)C1CC1 (configuration not stated) | ClpP1P2: 3.485%; CoaBC: 2.728%; Toxoplasma: 1.666%
* CC(NC(=O)Cc1cccs1)c1nnc2n1CCCCC2 (configuration not stated) | ClpP1P2: 5.931%; CoaBC: 11.13%; Toxoplasma: 0.7539%
* COCc1cn(CC2CCN(Cc3cc(C)[nH]n3)CC2)nn1 | ClpP1P2: -20.67%; CoaBC: 4.444%; Toxoplasma: -4.118%
* CCn1nc(C)c2nc(C)nc(NCCc3ccc(C)cc3)c21 | ClpP1P2: 1.795%; CoaBC: 10.21%; Toxoplasma: 34%
* COc1c(CNCC(O)c2cccc(F)c2)c(C)nn1C (configuration not stated) | ClpP1P2: -28.27%; CoaBC: 6.789%; Toxoplasma: 5.253%
* Cc1nc(C)n(CC2CCCN2CC(=O)Nc2ccncc2)n1 (configuration not stated) | ClpP1P2: 9.744%; CoaBC: 2.405%; Toxoplasma: -10.7%
* CCCn1nccc1C(=O)Nc1nc(C)c(C)s1 | ClpP1P2: 11.07%; CoaBC: 1.459%; Toxoplasma: 13.85%
* CCn1c(C)nnc1Sc1nn2cc(C)nc2s1 | ClpP1P2: -10.06%; CoaBC: 2.662%; Toxoplasma: 5.106%
* CCc1nc(CC(=O)N2CCOCC2c2ncon2)cs1 (configuration not stated) | ClpP1P2: -2.778%; CoaBC: 2.361%; Toxoplasma: 0.4308%
* Cc1cc(CNc2ccc3nc(C)sc3c2)no1 | ClpP1P2: -1.273%; CoaBC: 1.071%; Toxoplasma: -40.51%
* CCc1oc(C(=O)NCCc2nc(C(=O)O)cs2)cc1CN1CCCC1 | ClpP1P2: -7.48%; CoaBC: -4.132%; Toxoplasma: 2.189%

The last 2 entries again:

Cc1cc(CNc2ccc3nc(C)sc3c2)no1 gave ClpP1P2: -1.273%; CoaBC: 1.071%; Toxoplasma: -40.51%.
CCc1oc(C(=O)NCCc2nc(C(=O)O)cs2)cc1CN1CCCC1 gave ClpP1P2: -7.48%; CoaBC: -4.132%; Toxoplasma: 2.189%.